Taken from: PubChem BioAssay AID1259291 (Sanger Institute, 2017)
Shown is one part, drawn at random, of 794 reagents tested. 15 of all reagents (1.9%) were called active. 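Calls rest on knock-down alone; drug synergy scores do not affect them; drugs added a day post-transfection, DMSO vehicle as comparison.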 Entries without a mark were called inactive. No viability above 1 is reported: the scale is capped. Not stated in the record: the amount of reagent, the time to read-out.

- Test: 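Genes needed for HT29 colorectal cancer cell survival or for sensitivity to drugs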 (primary screen)
- Cells: HT29 human colorectal cancer cells
- Knock-down reagent: siRNA pool against human genes
- Conditions: anchor drugs added a day after transfection: BYL719 at 1 µM, cetuximab at 5 µg/ml or trametinib at 10 nM, or DMSO vehicle alone
- Detection: 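Replicate-averaged viability relative to non-targeting pool, robust z-score based on control wells, plus per-drug synergy score for 1 µM BYL719, 5 µg/ml cetuximab and 10 nM trametinib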
- Direction: robust z-score, knock-down alone and viability, knock-down alone: higher = more viable cells; synergy score with BYL719 and synergy score with cetuximab and synergy score with trametinib: higher = stronger synergistic killing with drug
- Call rule: 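a knock-down alone scoring under -3 on robust z-score is called essential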
- Calls: active = essential (knock-down alone); inactive = no change alone

gene knocked down | robust z-score, knock-down alone | viability, knock-down alone (fraction of control) | synergy score with BYL719 | synergy score with cetuximab | synergy score with trametinib
MAGI3 (GeneID 260425) | 0.552 | 1 | 0.0507 | 0 | 0.0201
PRKACG (GeneID 5568) | 0.552 | 1 | -0.0307 | 0.072 | 0.0342
AKT2 (GeneID 208) | 0.552 | 1 | 0.0141 | 0.0267 | 0.0233
SRC (GeneID 6714) | -0.562 | 0.931 | -0.0581 | -0.0301 | 0.00534
INSR (GeneID 3643) | 0.552 | 1 | 0.0626 | 0.0114 | 0.0739
PRKCB (GeneID 5579) | -0.403 | 0.941 | -0.0554 | 0.0224 | 0.0211
KDR (GeneID 3791) | 0.552 | 1 | -0.0927 | 0 | -0.0813
RELA (GeneID 5970) | 0.552 | 1 | -0.0932 | 0 | 0.104
FGFR1 (GeneID 2260) | 0.374 | 0.989 | 0.00229 | 0.0156 | 0.0375
CDADC1 (GeneID 81602) | 0.552 | 1 | -0.0371 | 0 | -0.0187
TRPM7 (GeneID 54822) | 0.552 | 1 | 0.163 | 0.00894 | -0.0178
PACSIN1 (GeneID 29993) | 0.552 | 1 | 0.0732 | 0 | 0.0797
MAP3K2 (GeneID 10746) | 0.552 | 1 | -0.0703 | 0.0494 | 0.0365
ITPKB (GeneID 3707) | 0.552 | 1 | 0.0783 | 0.0809 | 0.0149
AK3 (GeneID 50808) | 0.552 | 1 | -0.0422 | 0.0397 | 0.131
CKMT1B (GeneID 1159) | 0.552 | 1 | -0.0237 | 0 | -0.0633
SMAD2 (GeneID 4087) | 0.552 | 1 | -0.0917 | 0.0141 | 0.0397
MGA (GeneID 23269) | -1.73 | 0.859 | 0.0372 | 0.188 | 0.139
EPHA6 (GeneID 285220) | 0.552 | 1 | 0.227 | 0 | 0.202
CKS1B (GeneID 1163) | 0.552 | 1 | 0.0307 | 0.0255 | -0.0011
DGKK (GeneID 139189) | 0.167 | 0.976 | 0.0744 | -0.0239 | -0.000913
NEK8 (GeneID 284086) | 0.552 | 1 | 0.00719 | 0 | -0.0441
PRKAB2 (GeneID 5565) | -1.27 | 0.887 | 0.0134 | -0.0329 | 0.00804
ATP23 (GeneID 91419) | -0.405 | 0.941 | -0.0181 | -0.0308 | 0.0744
JAK2 (GeneID 3717) | -5.73 (active) | 0.611 | -0.116 | -0.136 | -0.00807
WNK4 (GeneID 65266) | 0.552 | 1 | -0.0517 | 0.107 | 0.0909
NR4A2 (GeneID 4929) | 0.132 | 0.974 | 0.111 | 0.179 | 0.0295
MST1R (GeneID 4486) | 0.552 | 1 | 0.0513 | 0.0576 | 0.081
PFKP (GeneID 5214) | 0.552 | 1 | 0.116 | 0.121 | -0.0727
MAP2K1 (GeneID 5604) | 0.552 | 1 | 0.0473 | 0.00799 | 0.0564
TP53BP1 (GeneID 7158) | -0.943 | 0.907 | -0.137 | -0.0928 | 0.0396
DAPK3 (GeneID 1613) | 0.487 | 0.996 | -0.0383 | -0.00412 | 0.188
GRK2 (GeneID 156) | 0.552 | 1 | 0.078 | 0 | 0.112
GNAS (GeneID 2778) | 0.552 | 1 | -0.016 | 0 | 0.145
NEK4 (GeneID 6787) | 0.0705 | 0.97 | 0.0633 | 0.112 | -0.0258
PLK1 (GeneID 5347) | -3.58 (active) | 0.744 | 0.199 | 0.0674 | 0.0914
CSNK2A1 (GeneID 1457) | 0.552 | 1 | 0.0268 | 0.0298 | -0.0108
ERBB4 (GeneID 2066) | 0.552 | 1 | 0.0687 | 0 | 0.108
AXIN2 (GeneID 8313) | -1.06 | 0.9 | -0.113 | -0.00313 | 0.0598
AKT1 (GeneID 207) | 0.552 | 1 | -0.00356 | 0 | 0.0633
TSSK3 (GeneID 81629) | 0.552 | 1 | -0.0841 | 0 | -0.114
TYRO3 (GeneID 7301) | 0.552 | 1 | 0.064 | 0 | -0.0111
SPEG (GeneID 10290) | 0.428 | 0.992 | -0.0386 | -0.00598 | 0.112
PFKFB3 (GeneID 5209) | 0.441 | 0.993 | 0.0915 | -0.00141 | 0.248
CAMK2N1 (GeneID 55450) | 0.552 | 1 | 0.0983 | 0.275 | 0.0996
MKNK2 (GeneID 2872) | -1.4 | 0.879 | -0.0527 | -0.0388 | 0.00712
AMHR2 (GeneID 269) | 0.552 | 1 | -0.000955 | 0.086 | 0.0499
DBF4 (GeneID 10926) | 0.552 | 1 | 0.0528 | 0.0285 | -0.0549
ULK3 (GeneID 25989) | 0.552 | 1 | 0.0251 | 0 | -0.0383
TK2 (GeneID 7084) | 0.552 | 1 | 0.0198 | 0.0727 | 0.057
